Assay [1] concerns the target T1, MCA-II-a-tagRFP expressed from RPS5apro in Arabidopsis (Arabidopsis thaliana) (UniProt O64517).
T1 sequence: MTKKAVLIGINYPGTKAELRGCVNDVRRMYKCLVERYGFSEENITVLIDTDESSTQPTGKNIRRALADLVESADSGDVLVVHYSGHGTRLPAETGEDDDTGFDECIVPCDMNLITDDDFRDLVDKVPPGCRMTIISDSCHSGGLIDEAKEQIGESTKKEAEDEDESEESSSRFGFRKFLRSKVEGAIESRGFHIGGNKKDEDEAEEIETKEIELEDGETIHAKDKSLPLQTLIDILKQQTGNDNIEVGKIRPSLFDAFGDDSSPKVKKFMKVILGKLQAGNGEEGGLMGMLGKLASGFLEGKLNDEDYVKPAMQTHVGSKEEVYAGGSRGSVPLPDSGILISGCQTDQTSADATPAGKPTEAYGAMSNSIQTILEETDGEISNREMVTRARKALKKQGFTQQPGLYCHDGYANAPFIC
The assay can be described thus: FRET or BRET. Background: In BRET a luciferase serves as donor, and the signal depends on an acceptor being close.

Assay [2] deals with T1, MCA-II-a-tagRFP expressed from RPS5apro in Arabidopsis (Arabidopsis thaliana). In words: proximity ligation.

No constants are given. Whether binding was seen depends on the method and setting. Binding seen in cells or lysates may run through a third protein. Some binding calls cover weakened binding; strength is not graded here. Sequences can lack the tags named with a protein.

This is an account of results in paper doi:10.1101/2023.03.19.533321.

B1: PUX10-GFP, ubiquitination regulatory X (UBX) domain-containing 10, expressed from PUX10pro in Arabidopsis (protein, UniProt Q9M0N1 1-480)
chain: MVDTVDKLGYFQAITGLEDADLCTEILQAHGWDLELAISSFTSSDQDASSSAVDGGGNNRDHDHNNATVTPDYPPRGIVDDTELVMRDDGGGNRGPGVAWRIITLPISIVSGSLGLVSGAIGLGIWAAGGVLSYSLGMLGFRSGRGGGSESARLVSVSSAVGEAMEFVALFDRDYGSNNAFKIDFVVEGFMDALQRSRSSFKLLFVYLHSPDHPDTPVFCGGTLCNEAVVAFVNENFVSWGGSIRSSEGFKMSNSLKASRFPFCAVVMPAANQRIALLQQVEGPKSPEEMLAILQRIVEDSSPTLVTARVEAEERRTNLRLREEQDAAYRAALEADQAREQQRQEEKERLEREAAEAERKLKEEEEARERAAREAEERQAARVRMRQEKALALGEEPEKGPDVTQVLVRFPNGERKGRMFKSETKIQTLYDYVDSLGLLDTEEYSLITNFPRTVYGRDKESMSLKDAGLHPQASLFIEIN
On to B1, for which the binding result in assay [1] and in assay [2] was “binds” throughout.
